According to the supplement of paper PMC10849652:
The other results are listed elsewhere or left out. Residues, ends and D or L forms follow the SMILES beside them. *: point of attachment. Cbz = O=C(OCc1ccccc1)*

Protein sequences, listed by entry. Tags and fused reporters are not part of them. Lines headed by an entry give the natural chain unless they say otherwise; changes in a name come on top.
UniProt Q5UCC4: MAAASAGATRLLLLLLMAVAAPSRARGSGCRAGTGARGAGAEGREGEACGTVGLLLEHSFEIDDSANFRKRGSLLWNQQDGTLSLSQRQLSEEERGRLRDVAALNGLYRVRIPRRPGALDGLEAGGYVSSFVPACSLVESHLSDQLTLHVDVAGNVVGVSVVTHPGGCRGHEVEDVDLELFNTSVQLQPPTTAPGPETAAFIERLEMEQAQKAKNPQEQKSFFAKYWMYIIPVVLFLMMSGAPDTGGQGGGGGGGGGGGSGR
UniProt Q9UI10, whole entry, looked up: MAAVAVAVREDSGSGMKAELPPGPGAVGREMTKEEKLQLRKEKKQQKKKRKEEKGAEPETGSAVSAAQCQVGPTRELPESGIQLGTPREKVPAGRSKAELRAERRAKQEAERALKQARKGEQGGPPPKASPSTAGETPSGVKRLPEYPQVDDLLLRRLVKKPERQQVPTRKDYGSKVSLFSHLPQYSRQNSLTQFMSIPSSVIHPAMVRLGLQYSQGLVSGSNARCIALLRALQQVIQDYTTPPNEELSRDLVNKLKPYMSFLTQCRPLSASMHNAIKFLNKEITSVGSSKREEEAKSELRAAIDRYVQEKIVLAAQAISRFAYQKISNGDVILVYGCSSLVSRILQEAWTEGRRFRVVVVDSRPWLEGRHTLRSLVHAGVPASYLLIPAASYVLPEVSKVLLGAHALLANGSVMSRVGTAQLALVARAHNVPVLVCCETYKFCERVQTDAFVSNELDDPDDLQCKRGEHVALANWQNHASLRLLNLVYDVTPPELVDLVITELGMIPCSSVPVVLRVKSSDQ
UniProt Q9H9B1: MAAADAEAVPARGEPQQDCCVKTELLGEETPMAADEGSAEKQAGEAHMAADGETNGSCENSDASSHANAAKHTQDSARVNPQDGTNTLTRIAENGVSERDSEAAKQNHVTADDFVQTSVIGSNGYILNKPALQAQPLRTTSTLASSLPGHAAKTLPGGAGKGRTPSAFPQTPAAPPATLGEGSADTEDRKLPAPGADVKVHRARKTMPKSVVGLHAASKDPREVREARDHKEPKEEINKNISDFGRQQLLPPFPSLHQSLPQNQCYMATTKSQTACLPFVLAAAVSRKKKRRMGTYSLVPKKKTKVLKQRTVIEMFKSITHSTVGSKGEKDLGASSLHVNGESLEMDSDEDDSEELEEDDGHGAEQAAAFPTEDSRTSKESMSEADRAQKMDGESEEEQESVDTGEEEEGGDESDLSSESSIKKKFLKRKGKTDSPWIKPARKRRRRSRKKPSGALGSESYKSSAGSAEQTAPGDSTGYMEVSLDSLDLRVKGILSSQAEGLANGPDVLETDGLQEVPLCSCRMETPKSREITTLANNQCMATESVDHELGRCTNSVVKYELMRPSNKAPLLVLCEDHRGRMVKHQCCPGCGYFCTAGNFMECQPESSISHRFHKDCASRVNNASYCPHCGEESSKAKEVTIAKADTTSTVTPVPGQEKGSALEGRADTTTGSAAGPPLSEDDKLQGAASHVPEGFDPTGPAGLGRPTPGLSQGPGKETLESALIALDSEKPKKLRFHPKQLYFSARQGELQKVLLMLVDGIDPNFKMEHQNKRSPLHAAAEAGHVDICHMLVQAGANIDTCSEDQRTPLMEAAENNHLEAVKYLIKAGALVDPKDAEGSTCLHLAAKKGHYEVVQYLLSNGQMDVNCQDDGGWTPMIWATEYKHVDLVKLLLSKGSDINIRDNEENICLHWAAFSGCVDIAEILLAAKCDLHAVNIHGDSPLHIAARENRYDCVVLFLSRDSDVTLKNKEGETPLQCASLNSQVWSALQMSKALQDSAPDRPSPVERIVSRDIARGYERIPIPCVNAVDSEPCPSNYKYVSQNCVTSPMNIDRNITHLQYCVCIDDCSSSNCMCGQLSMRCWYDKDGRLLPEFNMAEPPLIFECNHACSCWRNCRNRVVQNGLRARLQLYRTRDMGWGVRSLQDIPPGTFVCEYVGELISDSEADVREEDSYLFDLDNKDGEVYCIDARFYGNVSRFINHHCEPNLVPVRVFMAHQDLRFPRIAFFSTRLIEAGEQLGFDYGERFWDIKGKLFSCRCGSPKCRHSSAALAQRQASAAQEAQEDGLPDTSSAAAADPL
UniProt Q05639, whole entry, looked up: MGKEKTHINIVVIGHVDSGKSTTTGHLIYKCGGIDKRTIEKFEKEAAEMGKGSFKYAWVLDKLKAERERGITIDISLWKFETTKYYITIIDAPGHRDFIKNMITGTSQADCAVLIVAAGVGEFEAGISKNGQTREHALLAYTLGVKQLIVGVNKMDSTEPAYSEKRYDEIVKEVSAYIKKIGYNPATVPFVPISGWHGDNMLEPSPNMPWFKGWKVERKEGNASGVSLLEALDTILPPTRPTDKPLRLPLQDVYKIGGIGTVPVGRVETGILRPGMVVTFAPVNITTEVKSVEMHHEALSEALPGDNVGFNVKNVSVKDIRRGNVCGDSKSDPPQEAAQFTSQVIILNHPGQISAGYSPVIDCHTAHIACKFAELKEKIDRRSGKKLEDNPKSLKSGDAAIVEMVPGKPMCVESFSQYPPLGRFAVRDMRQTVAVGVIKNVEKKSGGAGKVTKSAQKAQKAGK
UniProt Q53HC9: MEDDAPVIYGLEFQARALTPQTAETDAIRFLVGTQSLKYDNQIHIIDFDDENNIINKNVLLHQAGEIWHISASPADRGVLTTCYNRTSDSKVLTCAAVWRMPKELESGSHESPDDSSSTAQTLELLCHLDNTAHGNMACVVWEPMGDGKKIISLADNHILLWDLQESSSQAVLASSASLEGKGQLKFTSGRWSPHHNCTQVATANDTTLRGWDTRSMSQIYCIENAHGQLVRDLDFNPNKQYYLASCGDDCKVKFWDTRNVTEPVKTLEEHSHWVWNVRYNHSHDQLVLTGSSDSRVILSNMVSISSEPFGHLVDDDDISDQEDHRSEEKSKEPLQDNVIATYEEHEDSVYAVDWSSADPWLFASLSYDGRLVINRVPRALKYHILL
UniProt Q9UBQ5, whole entry, looked up: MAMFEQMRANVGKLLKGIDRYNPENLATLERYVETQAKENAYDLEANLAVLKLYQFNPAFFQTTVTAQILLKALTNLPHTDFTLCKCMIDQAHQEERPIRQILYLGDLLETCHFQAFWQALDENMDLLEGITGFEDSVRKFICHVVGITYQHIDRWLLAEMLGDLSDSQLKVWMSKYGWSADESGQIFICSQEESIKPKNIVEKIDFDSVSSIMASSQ
UniProt Q9P0I2: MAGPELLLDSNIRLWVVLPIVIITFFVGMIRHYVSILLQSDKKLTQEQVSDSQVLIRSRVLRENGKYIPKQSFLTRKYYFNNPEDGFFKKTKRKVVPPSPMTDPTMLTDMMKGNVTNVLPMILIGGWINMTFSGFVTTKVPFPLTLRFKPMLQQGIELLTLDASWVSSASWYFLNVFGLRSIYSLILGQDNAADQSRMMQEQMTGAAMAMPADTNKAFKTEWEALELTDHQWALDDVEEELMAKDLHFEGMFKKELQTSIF
UniProt Q8N766: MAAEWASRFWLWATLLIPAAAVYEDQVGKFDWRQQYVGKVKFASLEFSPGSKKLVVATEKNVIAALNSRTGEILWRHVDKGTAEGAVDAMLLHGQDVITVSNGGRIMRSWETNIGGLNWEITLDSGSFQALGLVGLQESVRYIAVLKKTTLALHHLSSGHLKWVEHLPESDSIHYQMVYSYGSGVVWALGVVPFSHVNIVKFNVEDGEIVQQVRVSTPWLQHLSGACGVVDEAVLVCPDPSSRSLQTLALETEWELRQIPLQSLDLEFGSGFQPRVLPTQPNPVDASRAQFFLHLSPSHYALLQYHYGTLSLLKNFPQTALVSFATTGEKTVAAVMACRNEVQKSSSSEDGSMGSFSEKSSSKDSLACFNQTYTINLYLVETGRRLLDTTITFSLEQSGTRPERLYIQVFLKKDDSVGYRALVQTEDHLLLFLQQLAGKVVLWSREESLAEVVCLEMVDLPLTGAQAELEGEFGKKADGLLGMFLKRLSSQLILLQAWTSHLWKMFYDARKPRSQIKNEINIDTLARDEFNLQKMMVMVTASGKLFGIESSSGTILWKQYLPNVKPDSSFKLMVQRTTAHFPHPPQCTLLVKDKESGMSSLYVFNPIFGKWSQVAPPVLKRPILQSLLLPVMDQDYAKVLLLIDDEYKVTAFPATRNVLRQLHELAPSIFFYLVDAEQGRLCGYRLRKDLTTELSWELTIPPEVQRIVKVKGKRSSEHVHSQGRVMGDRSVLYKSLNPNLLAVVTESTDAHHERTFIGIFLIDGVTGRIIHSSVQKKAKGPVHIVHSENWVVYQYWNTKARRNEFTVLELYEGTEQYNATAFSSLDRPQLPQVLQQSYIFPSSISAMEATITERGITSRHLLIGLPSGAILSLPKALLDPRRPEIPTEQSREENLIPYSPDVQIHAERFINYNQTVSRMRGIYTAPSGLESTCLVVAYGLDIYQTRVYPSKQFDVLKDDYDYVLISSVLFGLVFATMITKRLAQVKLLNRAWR
UniProt Q9BQ52: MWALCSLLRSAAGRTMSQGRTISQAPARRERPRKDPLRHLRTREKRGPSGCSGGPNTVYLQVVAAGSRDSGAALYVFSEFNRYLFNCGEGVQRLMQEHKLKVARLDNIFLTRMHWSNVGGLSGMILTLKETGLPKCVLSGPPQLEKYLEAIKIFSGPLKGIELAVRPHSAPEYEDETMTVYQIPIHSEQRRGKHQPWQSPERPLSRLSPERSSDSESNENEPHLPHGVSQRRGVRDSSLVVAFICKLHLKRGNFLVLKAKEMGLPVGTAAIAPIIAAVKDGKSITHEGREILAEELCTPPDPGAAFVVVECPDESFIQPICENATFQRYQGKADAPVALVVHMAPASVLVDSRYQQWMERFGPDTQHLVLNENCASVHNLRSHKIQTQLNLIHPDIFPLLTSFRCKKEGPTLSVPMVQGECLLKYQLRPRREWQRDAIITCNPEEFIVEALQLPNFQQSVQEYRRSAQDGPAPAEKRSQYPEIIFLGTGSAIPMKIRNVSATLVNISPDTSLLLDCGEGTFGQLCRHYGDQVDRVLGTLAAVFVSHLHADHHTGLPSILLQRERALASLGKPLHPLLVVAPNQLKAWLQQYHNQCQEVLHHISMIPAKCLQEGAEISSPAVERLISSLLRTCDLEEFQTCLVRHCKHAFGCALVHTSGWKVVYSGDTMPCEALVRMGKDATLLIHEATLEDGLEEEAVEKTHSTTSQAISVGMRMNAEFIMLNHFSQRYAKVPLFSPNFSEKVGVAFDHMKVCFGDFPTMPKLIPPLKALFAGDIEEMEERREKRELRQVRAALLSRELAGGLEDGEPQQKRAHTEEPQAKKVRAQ
UniProt Q13541: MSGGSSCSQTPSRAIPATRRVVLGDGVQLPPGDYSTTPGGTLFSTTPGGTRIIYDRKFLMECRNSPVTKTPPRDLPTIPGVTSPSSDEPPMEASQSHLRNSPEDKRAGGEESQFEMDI
UniProt P24534: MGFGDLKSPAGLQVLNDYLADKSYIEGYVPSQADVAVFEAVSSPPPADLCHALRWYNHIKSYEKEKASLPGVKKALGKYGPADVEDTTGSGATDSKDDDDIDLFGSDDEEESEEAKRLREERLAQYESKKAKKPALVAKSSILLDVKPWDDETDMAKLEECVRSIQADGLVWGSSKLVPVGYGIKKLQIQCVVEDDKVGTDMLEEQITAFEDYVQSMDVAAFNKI
UniProt P06733, whole entry, looked up: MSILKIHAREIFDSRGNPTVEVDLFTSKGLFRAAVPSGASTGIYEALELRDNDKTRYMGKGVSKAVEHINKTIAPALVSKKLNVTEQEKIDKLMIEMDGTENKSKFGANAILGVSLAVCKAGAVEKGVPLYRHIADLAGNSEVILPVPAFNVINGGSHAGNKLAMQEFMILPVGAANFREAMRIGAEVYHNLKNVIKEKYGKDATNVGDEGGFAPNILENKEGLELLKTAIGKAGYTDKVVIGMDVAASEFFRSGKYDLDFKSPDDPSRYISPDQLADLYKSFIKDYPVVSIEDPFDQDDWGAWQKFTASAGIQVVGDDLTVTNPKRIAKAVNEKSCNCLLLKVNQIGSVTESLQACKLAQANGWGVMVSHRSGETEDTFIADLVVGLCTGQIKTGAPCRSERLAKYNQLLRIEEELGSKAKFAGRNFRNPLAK
UniProt Q5J8M3, whole entry, looked up: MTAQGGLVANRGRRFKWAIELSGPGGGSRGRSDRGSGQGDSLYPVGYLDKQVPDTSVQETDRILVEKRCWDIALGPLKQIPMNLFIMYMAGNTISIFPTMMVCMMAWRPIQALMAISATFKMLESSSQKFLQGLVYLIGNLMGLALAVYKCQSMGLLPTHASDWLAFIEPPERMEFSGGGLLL
UniProt Q7L2H7, whole entry, looked up: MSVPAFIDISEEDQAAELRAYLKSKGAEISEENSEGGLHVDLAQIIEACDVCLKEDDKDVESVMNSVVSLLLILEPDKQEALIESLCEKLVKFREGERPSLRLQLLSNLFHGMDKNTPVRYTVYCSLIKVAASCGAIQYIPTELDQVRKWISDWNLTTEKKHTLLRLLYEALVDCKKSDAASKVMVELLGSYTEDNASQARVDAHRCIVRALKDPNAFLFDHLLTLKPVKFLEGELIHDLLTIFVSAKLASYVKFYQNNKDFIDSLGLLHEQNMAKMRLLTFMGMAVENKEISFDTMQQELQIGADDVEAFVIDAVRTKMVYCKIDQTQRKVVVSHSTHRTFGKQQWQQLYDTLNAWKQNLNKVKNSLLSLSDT

How the values were obtained:
Assay in all cases: log2 fold change, soluble protein after heating vs DMSO (PISA); higher = thermal stabilisation; K562 cells, 10 uM, 30 min; active = over 0.2 and 3.5 SD of the protein, either way, in both replicates (recomputed)
erlotinib = compound: C#Cc1cccc(Nc2ncnc3cc(OCCOC)c(OCCOC)cc23)c1 [erlotinib]
Method in brief: (§1)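 For each measurement, 10 μM compound was applied for 30 min to K562 cells at 2×10^6 cells/mL. Aliquots were heated for 3 min across 48°C-58°C, pooled, and extracted in PBS with 0.5% NP-40 at 4°C; the supernatant after 21,000xg for 90 min was soluble protein. This was quantified by TMTpro 16plex LC-MS/MS with channel sums equalised, and thermal stability was reported relative to control samples from duplicates, on a log2 fold-change scale.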

[1] = compound: C/C(=N\NC(=O)C1=CC(=CC=C1)S(=O)(=O)N2CCOCC2)/C3=C(C=CC(=C3)Cl)O
Method in brief: as §1

[2] = compound: C1=CC(=C(C=C1Cl)C2=NC3=NC=CN=C3C(=N2)NC4=CC=NC=C4)F
Method in brief: as §1

[3] = compound: C1=CC(=CC=C1C2=NC3=C(N2)C=C(C=C3)C(=O)N)OC4=CC=C(C=C4)Cl
Method in brief: as §1

[4] = compound: C1=CC2=C(C=CC(=C2)/C=C\3/C(=O)NC(=NCC4=CC=CS4)S3)N=C1
Method in brief: as §1

[5] = compound: C1=CC2=NC=CN=C2C=C1/C=C/3\C(=O)NC(=O)S3
Method in brief: as §1

[6] = compound: C1=CC=C(C=C1)C2=NC(=C(N2)C3=CC=NC=C3)C4=CC(=C(C=C4)Cl)O
Method in brief: as §1

[7] = compound: C1=CC=C2C(=C1)C3=NNC4=CC=CC(=C43)C2=O
Method in brief: as §1

[8] = compound: C1CCN(C1)C(=O)NC2=CC=CC(=C2)NC3=NC=C(C(=N3)NCCC4=CN=CN4)Br
Method in brief: as §1

[9] = compound: C1CN(CCC1(CC2=CC=C(C=C2)Cl)N)C3=NC=NC4=C3C=CN4
Method in brief: as §1

IRAK-1-4 Inhibitor I = compound: C1COCCN1CCN2C3=CC=CC=C3N=C2NC(=O)C4=CC(=CC=C4)[N+](=O)[O-] [IRAK-1-4 Inhibitor I]
Method in brief: as §1

ibrutinib = compound: C=CC(=O)N1CCC[C@@H](n2nc(-c3ccc(Oc4ccccc4)cc3)c3c(N)ncnc32)C1 [ibrutinib]
Method in brief: as §1

[10] = compound: CC(=O)c1cnc2ccc(-c3cc(Cl)c(O)c(Cl)c3)nc2c1N[C@H]1CC[C@H](CN(C)C)CC1
Method in brief: as §1

ralimetinib = compound: CC(C)(C)Cn1c(N)nc2ccc(-c3[nH]c(C(C)(C)C)nc3-c3ccc(F)cc3)nc21 [ralimetinib]
Method in brief: as §1

[11] = compound: CC(C)(O)CC(=O)NCCn1ccc2ncnc(Nc3ccc(Oc4cccc(C(F)(F)F)c4)c(Cl)c3)c21
Method in brief: as §1

[12] = compound: CC(C)C1=C2N=C(C=C(N2N=C1)NCC3=CC=CC=C3)NCCCCCCN
Method in brief: as §1

[13] = compound: CC(C)C[C@@H](C=O)NC(=O)[C@H](CC(C)C)NC(=O)[C@H](CC(C)C)NC(=O)OCc1ccccc1
Method in brief: as §1

pinometostat = compound: CC(C)N(C[C@H]1O[C@@H](n2cnc3c(N)ncnc32)[C@H](O)[C@@H]1O)[C@H]1C[C@@H](CCc2nc3cc(C(C)(C)C)ccc3[nH]2)C1 [pinometostat]
Method in brief: as §1

[14] = compound: CC1=C(C(CC(=O)N1)C2=CC=C(C=C2)C(F)(F)F)C(=O)NC3=C(C=C4C(=C3)C=NN4)F
Method in brief: as §1

[15] = compound: CC1=C(C2=C(C=C1)C(=O)C3=CC=CC=C3N2CCCN)C
Method in brief: as §1

Measured: log2 fold change

EMC10 (UniProt Q5UCC4)
inactive: erlotinib 0 | [1] -0.05 | [2] 0.014 | [3] -0.004 | [4] 0.016 | [5] 0.004 | [6] 0 | [7] -0.087 | [8] -0.004 | [9] 0.045 | IRAK-1-4 Inhibitor I 0.022 | ibrutinib 0.047 | [10] -0.041 | ralimetinib -0.015 | [11] -0.046 | [12] 0.011 | [13] 0.017 | pinometostat 0.012 | [14] -0.023 | [15] 0.031

EIF2B4 isoform 2 (UniProt Q9UI10)
inactive: erlotinib 0.02 | [1] -0.029 | [2] -0.044 | [3] 0.044 | [4] 0.032 | [5] -0.001 | [6] 0.055 | [7] 0 | [8] -0.012 | [9] -0.032 | IRAK-1-4 Inhibitor I -0.029 | ibrutinib -0.007 | [10] -0.03 | ralimetinib 0.054 | [11] -0.018 | [12] -0.11 | [13] 0.047 | pinometostat 0.093 | [14] 0.01 | [15] 0.014

EML3 (UniProt Q32P44)
inactive: erlotinib 0.04 | [1] 0.163 | [2] -0.08 | [3] -0.011 | [4] -0.219 | [5] 0.045 | [6] 0.005 | [7] 0 | [8] -0.131 | [9] -0.068 | IRAK-1-4 Inhibitor I -0.089 | ibrutinib 0.022 | [10] 0.029 | ralimetinib 0.11 | [11] 0.013 | [12] -0.138 | [13] 0.181 | pinometostat 0.266 | [14] -0.007 | [15] 0.049

EHMT1 (UniProt Q9H9B1)
inactive: erlotinib 0.139 | [1] 0.159 | [2] 0.101 | [3] 0 | [4] 0.005 | [5] -0.203 | [6] -0.089 | [7] -0.042 | [8] 0.037 | [9] -0.07 | IRAK-1-4 Inhibitor I -0.144 | ibrutinib -0.357 | [10] -0.053 | ralimetinib -0.03 | [11] -0.028 | [12] -0.059 | [13] 0.049 | pinometostat 0.109 | [15] -0.063

EEF1A2 (UniProt Q05639)
inactive: erlotinib 0.02 | [1] 0.008 | [2] -0.048 | [3] 0.004 | [4] 0.065 | [5] -0.003 | [6] 0.008 | [7] 0.003 | [8] 0.022 | [9] 0.025 | IRAK-1-4 Inhibitor I 0.022 | ibrutinib 0.007 | [10] -0.028 | ralimetinib -0.03 | [11] -0.001 | [12] 0.009 | [13] -0.016 | pinometostat -0.031 | [14] -0.007 | [15] -0.01

EIPR1 (UniProt Q53HC9)
inactive: erlotinib -0.002 | [1] 0.05 | [2] 0.048 | [3] -0.002 | [4] -0.007 | [5] -0.051 | [6] 0 | [7] -0.012 | [8] -0.058 | [9] 0.032 | IRAK-1-4 Inhibitor I 0.025 | ibrutinib 0.006 | [10] 0.024 | ralimetinib -0.006 | [11] 0.055 | [12] -0.01 | [13] -0.07 | pinometostat -0.031 | [14] -0.012 | [15] -0.003

EIF3K (UniProt Q9UBQ5)
inactive: erlotinib 0.021 | [1] 0.043 | [2] 0.117 | [3] 0.012 | [4] 0.042 | [5] 0.05 | [6] 0.08 | [7] -0.023 | [8] -0.005 | [9] -0.048 | IRAK-1-4 Inhibitor I -0.022 | ibrutinib -0.017 | [10] -0.003 | ralimetinib 0.03 | [11] -0.079 | [12] -0.065 | [13] -0.022 | pinometostat -0.018 | [14] 0.031 | [15] 0.095

EMC3 (UniProt Q9P0I2)
inactive: erlotinib -0.024 | [1] 0.023 | [2] 0.02 | [3] -0.026 | [4] 0.022 | [5] 0.06 | [6] -0.04 | [7] -0.024 | [8] 0.024 | [9] 0.019 | IRAK-1-4 Inhibitor I 0.052 | ibrutinib -0.021 | [10] 0.014 | ralimetinib -0.001 | [11] -0.007 | [12] 0.014 | [13] 0.012 | pinometostat 0.011 | [14] -0.021 | [15] 0.012

EMC1 (UniProt Q8N766)
inactive: erlotinib -0.002 | [1] 0.052 | [2] 0.013 | [3] -0.024 | [4] -0.028 | [5] 0.045 | [6] 0.021 | [7] 0.019 | [8] -0.019 | [9] 0.026 | IRAK-1-4 Inhibitor I 0.015 | ibrutinib -0.009 | [10] 0.011 | ralimetinib -0.01 | [11] -0.011 | [12] -0.025 | [13] -0.014 | pinometostat -0.019 | [14] -0.001 | [15] -0.007

ELAC2 (UniProt Q9BQ52)
inactive: erlotinib 0.016 | [1] 0.022 | [2] 0.028 | [3] 0.042 | [4] -0.017 | [5] 0.018 | [6] 0.025 | [7] 0.005 | [8] 0.001 | [9] 0.073 | IRAK-1-4 Inhibitor I 0.016 | ibrutinib 0.034 | [10] 0 | ralimetinib -0.019 | [11] -0.059 | [12] 0.062 | [13] -0.005 | pinometostat -0.007 | [14] 0.011 | [15] 0

EEF1D isoform 2 (UniProt P29692)
inactive: erlotinib 0 | [1] 0.031 | [2] 0.016 | [3] -0.028 | [4] 0.025 | [5] 0.02 | [6] -0.03 | [7] 0.021 | [8] 0.048 | [9] -0.055 | IRAK-1-4 Inhibitor I -0.038 | ibrutinib -0.039 | [10] 0.012 | ralimetinib 0.026 | [11] -0.006 | [12] -0.051 | [13] 0.029 | pinometostat 0.065 | [15] 0.039

EIF4EBP1 (UniProt Q13541)
inactive: erlotinib 0.016 | [1] 0.043 | [2] -0.044 | [3] 0.023 | [4] 0.05 | [5] 0.003 | [6] -0.023 | [7] 0.063 | [8] -0.113 | [9] 0.039 | IRAK-1-4 Inhibitor I 0.02 | ibrutinib 0.068 | [10] -0.22 | ralimetinib -0.072 | [11] -0.058 | [12] 0.024 | [13] 0.014 | pinometostat -0.031 | [14] 0.005 | [15] 0.112

EEF1B2 (UniProt P24534)
inactive: erlotinib -0.006 | [1] 0.033 | [2] -0.028 | [3] -0.058 | [4] 0.008 | [5] -0.036 | [6] 0.027 | [7] 0.02 | [8] 0.064 | [9] -0.058 | IRAK-1-4 Inhibitor I -0.01 | ibrutinib -0.054 | [10] 0.009 | ralimetinib 0.003 | [11] 0.011 | [12] -0.069 | [13] 0.04 | pinometostat 0.001 | [15] 0.047

ENO1 (UniProt P06733)
inactive: erlotinib 0.04 | [1] -0.006 | [2] 0.018 | [3] -0.008 | [4] 0.014 | [5] -0.01 | [6] -0.039 | [7] -0.005 | [8] 0.028 | [9] 0.037 | IRAK-1-4 Inhibitor I 0.038 | ibrutinib -0.023 | [10] -0.004 | ralimetinib -0.011 | [11] 0.04 | [12] 0.056 | [13] 0.023 | pinometostat -0.039 | [14] 0.035 | [15] 0

EMC4 (UniProt Q5J8M3)
inactive: erlotinib 0.016 | [1] 0.038 | [2] 0.035 | [3] 0.028 | [4] 0.022 | [5] 0.095 | [6] 0.061 | [7] -0.02 | [8] -0.065 | [9] -0.008 | IRAK-1-4 Inhibitor I -0.007 | ibrutinib -0.015 | [10] -0.012 | ralimetinib -0.118 | [11] -0.049 | [12] 0.056 | [13] 0.007 | pinometostat -0.002 | [14] 0.043 | [15] 0.104

EIF3M (UniProt Q7L2H7)
inactive: erlotinib -0.033 | [1] 0.074 | [2] 0.007 | [3] -0.007 | [4] -0.005 | [5] 0.036 | [6] 0.095 | [7] 0.034 | [8] -0.017 | [9] -0.081 | IRAK-1-4 Inhibitor I -0.058 | ibrutinib 0.007 | [10] 0.018 | ralimetinib 0.113 | [11] -0.071 | [12] -0.133 | [13] -0.011 | pinometostat 0.048 | [14] 0.056 | [15] -0.07
